For test [1], the target named is FLAG-tagged SIRT1 (full length SIRT1-FLAG) (UniProt Q96EB6). The test is described as follows: co-IP; lysates of HEK293T cells overexpressing FLAG-tagged SIRT1; immunoprecipitation with α-FLAG or with α-HSP90α antibody on magnetic beads (Universal Magnetic Co-IP Kit), 4 °C; immunoblot. On the technique in general: In western blotting, separated proteins are transferred to a membrane and probed.

Chains of the proteins cited; added tags and fusions are not shown.
UniProt Q96EB6: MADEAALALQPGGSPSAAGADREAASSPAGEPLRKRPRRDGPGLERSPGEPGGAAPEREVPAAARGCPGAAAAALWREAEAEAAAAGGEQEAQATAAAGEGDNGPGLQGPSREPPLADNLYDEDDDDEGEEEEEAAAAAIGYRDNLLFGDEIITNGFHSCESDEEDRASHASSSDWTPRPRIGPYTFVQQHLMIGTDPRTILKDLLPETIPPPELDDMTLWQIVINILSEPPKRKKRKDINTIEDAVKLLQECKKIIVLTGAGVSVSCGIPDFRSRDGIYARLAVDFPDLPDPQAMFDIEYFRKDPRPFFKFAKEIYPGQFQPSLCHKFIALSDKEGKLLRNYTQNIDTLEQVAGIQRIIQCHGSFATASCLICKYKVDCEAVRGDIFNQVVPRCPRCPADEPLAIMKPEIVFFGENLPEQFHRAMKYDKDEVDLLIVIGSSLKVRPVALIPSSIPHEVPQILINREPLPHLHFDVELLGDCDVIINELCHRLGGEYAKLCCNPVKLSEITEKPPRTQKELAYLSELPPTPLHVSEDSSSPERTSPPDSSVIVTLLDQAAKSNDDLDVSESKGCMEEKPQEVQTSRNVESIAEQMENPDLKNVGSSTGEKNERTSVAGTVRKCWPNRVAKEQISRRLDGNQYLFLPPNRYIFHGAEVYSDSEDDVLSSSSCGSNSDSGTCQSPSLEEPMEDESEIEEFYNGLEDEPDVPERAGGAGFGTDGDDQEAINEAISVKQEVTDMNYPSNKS

For test [2], the target named is endogenous SIRT1 in DLBCL cells (human (endogenous in DLBCL cell lines)) (UniProt Q96EB6). The test is described as follows: proximity ligation; endogenous proteins in fixed, permeabilised OxPhos and non-OxPhos DLBCL cell lines; anti-SIRT1 and anti-HSP90α primary antibodies; Duolink, signal at <40 nm; interphase and mitotic cells (starvation/nocodazole enrichment).

The target in test [3] is FLAG-tagged SIRT1 (full length SIRT1-FLAG) (UniProt Q96EB6). Put plainly: proximity ligation; HEK293T cells transfected with HSP90α-HA and SIRT1-FLAG constructs (full length or fragments), fixed and permeabilised; anti-FLAG and anti-HA primary antibodies; Duolink, signal at <40 nm; interphase and mitotic cells.

Results are given in words; binding and its absence hold for the method and conditions named. Binding seen in cells or lysates may run through a third protein. Some binding calls cover weakened binding; strength is not graded here.

In the case of “HSP90α (in HEK293T cells overexpressing FLAG-tagged SIRT1) (from UniProt P07900 1-732)”, the binding result in test [1] was “binds”.
Take “endogenous HSP90α in DLBCL cells (from UniProt P07900 1-732)”: in test [2], the binding entry is “binds”.
Turning to “HA-tagged HSP90α (HSP90α-HA) (from UniProt P07900 1-732)”, the binding entry in test [3] was “binds”.

For the origin of these results see PMC10564908.
